One compound from patent US10822535B2, “Modified acid compositions as alternatives to conventional acids in the oil and gas industry” (Fluid Energy Group Ltd., priority 2017, dated 2020) can be followed below.

Counter-ions that a name gives are not always drawn.

A short description of series [1]: Corrosion testing of acid compositions on steel coupons. Particulars: 1018 steel, 110° C., 6 hours, corrosion package none.
Series [2] in a line: Wormholing testing (matrix acidizing experiments).
The mark [3] stands for this setting: optimal condition, Buijse and Glasbergen fit, Example 1 at 90% conc.

As for `Cl` [15% HCl, hydrochloric acid], in series [1], the “Corrosion Mils/yr” value was 45436.180 Mils/yr. Besides, in series [1], the “Corrosion lb/ft2” value is listed as 1.273 lb/ft2. Moreover, the Corrosion mm/year in series [1] is 1154.079 mm/year. In series [1], this compound showed a Loss wt. of 25.722 g. For the same compound, the “wormhole pattern at low injection rate” value in series [2] (0.8 ml/min (0.5 cm/min)) was “large-diameter wormhole”. In addition, the “Pore Volume to Breakthrough” value was 0.60 in series [2] (core IC1, acid injection rate 8 ml/min, interstitial velocity 4.53 cm/min); 0.52 in series [2] (core IC2, acid injection rate 10 ml/min, interstitial velocity 6.39 cm/min); 0.60 in series [2] (core IC3, acid injection rate 7 ml/min, interstitial velocity 4.97 cm/min); 0.51 in series [2] (core IC5, acid injection rate 5 ml/min, interstitial velocity 3.47 cm/min); 0.47 in series [2] (core IC6, acid injection rate 3 ml/min, interstitial velocity 2.10 cm/min); 0.64 in series [2] (core IC16, acid injection rate 2 ml/min, interstitial velocity 1.56 cm/min). Further, in series [2] (core IC18, acid injection rate 0.8 ml/min, interstitial velocity 0.62 cm/min), the “Pore Volume to Breakthrough” value was 2.93. In series [2] (setting [3]), this compound displayed a PVbt-optimal of 0.46. The compound further returned a Vi-opt in series [2] (setting [3]) of 1.97.
